Laboratory results taken from the supplement of paper PMC10849652.
This is one part of the list.

The chains behind the UniProt entries cited, without tags or fusion partners. Where a name states a change or a piece, a line headed by the entry shows the natural chain unless it says otherwise.
UniProt P35611: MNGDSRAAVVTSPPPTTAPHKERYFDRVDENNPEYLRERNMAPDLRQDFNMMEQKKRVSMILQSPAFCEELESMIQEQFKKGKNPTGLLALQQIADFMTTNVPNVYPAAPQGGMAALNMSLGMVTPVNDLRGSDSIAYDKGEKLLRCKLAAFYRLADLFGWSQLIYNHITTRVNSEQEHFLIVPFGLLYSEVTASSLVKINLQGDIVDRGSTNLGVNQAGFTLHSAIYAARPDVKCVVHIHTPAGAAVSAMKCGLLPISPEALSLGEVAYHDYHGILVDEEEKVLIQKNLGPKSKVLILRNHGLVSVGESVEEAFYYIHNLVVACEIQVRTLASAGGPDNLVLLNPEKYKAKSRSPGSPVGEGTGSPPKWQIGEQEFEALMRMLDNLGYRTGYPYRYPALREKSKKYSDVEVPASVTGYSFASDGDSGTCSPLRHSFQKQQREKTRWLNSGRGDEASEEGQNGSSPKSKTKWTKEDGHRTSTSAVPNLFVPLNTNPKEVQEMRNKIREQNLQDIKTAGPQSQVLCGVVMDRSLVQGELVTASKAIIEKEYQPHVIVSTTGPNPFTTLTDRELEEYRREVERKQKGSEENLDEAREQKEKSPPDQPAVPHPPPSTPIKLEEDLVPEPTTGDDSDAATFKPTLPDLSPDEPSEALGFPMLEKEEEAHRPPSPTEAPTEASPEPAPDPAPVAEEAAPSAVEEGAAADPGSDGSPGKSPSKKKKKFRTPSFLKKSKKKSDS
UniProt Q9BV57: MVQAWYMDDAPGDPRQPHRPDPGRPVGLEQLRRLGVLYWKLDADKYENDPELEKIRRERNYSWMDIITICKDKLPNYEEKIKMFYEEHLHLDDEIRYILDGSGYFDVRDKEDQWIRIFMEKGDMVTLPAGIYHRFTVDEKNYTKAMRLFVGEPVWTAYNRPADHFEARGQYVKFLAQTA
UniProt O96019, whole entry, looked up: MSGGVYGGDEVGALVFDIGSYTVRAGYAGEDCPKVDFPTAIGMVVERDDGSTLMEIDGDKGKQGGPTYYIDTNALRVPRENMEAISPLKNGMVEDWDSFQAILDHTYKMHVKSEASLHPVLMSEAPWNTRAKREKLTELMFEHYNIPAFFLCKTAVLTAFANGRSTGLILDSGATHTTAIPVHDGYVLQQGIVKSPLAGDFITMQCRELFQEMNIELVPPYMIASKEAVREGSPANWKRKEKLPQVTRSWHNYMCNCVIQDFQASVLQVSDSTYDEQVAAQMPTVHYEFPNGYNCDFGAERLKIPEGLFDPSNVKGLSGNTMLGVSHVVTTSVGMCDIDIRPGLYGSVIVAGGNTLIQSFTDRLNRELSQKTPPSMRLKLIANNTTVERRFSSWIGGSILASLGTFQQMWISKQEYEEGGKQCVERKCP
UniProt Q15067: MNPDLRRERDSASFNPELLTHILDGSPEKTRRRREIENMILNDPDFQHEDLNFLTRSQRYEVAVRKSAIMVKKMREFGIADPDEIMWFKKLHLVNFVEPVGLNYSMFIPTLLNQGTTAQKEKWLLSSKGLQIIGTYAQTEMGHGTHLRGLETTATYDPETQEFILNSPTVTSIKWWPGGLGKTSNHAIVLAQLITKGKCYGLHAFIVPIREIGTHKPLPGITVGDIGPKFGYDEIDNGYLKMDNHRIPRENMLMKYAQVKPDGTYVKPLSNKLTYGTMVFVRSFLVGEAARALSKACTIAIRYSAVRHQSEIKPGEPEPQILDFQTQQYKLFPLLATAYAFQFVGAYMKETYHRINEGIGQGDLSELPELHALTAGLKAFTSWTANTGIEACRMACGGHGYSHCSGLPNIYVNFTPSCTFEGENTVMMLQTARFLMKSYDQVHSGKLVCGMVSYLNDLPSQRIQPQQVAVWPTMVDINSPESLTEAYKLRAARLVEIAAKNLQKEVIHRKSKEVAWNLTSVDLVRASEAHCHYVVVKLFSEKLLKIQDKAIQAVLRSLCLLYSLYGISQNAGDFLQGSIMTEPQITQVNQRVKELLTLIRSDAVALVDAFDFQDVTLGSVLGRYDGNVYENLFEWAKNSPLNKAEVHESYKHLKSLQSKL
UniProt P11766: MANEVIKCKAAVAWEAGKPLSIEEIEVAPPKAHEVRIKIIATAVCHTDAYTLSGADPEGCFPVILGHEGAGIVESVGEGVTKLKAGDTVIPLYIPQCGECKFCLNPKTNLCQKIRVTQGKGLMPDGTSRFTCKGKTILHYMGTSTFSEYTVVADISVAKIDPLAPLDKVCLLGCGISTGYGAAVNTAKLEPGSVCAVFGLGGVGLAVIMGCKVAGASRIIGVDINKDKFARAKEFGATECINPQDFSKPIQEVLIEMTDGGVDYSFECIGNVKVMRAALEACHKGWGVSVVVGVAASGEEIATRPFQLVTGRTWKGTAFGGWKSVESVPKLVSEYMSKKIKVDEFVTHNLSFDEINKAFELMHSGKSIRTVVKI
UniProt Q53FZ2: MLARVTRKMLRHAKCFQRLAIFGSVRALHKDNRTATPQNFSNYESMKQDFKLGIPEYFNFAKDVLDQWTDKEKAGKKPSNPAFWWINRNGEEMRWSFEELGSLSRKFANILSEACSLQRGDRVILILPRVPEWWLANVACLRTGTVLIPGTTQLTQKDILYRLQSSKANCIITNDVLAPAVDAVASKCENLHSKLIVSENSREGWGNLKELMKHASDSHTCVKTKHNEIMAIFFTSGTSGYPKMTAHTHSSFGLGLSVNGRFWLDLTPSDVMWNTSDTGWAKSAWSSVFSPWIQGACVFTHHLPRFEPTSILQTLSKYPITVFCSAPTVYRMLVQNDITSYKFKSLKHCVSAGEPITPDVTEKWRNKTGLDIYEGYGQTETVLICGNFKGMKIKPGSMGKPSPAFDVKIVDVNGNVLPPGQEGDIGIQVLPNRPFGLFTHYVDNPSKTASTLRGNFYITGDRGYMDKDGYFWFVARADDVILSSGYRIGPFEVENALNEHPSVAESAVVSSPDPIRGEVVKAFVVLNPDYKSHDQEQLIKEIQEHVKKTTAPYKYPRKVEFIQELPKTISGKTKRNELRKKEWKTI
UniProt Q13155: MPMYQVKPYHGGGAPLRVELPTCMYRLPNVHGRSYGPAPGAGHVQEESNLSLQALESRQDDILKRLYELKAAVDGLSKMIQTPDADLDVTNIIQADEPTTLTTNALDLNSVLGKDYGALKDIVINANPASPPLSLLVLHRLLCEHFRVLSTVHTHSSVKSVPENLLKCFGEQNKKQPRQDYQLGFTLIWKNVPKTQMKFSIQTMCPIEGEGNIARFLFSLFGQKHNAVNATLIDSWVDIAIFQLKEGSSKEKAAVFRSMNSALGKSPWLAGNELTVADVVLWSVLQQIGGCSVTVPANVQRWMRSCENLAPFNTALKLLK
UniProt Q53H12: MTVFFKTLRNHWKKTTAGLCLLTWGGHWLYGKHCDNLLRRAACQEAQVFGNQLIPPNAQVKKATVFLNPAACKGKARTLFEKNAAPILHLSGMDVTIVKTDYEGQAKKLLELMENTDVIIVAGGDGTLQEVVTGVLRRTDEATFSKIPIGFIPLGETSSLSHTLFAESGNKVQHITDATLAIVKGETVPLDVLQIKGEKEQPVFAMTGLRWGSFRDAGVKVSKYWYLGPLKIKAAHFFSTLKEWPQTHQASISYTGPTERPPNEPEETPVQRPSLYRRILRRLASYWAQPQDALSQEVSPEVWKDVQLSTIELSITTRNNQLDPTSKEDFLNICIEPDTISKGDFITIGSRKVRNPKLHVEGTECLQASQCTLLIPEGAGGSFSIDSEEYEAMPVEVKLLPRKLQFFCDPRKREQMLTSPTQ
UniProt Q9UIJ7: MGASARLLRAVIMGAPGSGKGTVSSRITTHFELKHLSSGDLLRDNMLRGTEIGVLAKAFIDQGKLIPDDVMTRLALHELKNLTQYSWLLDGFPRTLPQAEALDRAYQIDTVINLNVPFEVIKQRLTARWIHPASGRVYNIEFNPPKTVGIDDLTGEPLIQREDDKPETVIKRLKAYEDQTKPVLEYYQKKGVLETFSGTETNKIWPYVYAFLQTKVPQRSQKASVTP
UniProt Q9NR19, whole entry, looked up: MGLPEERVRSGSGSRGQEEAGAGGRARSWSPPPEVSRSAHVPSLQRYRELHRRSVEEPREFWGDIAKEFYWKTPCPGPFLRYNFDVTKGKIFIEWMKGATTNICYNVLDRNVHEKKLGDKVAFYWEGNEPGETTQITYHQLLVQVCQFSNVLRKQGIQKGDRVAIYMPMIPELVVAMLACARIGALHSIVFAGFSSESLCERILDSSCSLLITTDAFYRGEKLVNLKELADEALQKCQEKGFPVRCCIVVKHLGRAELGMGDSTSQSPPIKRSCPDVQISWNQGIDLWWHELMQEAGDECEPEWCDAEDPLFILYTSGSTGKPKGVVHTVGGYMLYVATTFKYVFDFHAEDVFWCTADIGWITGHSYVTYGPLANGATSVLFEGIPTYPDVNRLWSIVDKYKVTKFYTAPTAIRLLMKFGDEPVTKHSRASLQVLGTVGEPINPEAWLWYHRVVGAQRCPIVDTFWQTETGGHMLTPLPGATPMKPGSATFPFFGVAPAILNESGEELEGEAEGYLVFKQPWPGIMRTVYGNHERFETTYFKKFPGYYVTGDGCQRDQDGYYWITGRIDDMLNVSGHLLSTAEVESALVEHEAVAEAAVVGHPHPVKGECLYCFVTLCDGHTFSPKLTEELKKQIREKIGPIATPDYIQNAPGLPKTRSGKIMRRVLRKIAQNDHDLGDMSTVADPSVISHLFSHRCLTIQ
UniProt O95573: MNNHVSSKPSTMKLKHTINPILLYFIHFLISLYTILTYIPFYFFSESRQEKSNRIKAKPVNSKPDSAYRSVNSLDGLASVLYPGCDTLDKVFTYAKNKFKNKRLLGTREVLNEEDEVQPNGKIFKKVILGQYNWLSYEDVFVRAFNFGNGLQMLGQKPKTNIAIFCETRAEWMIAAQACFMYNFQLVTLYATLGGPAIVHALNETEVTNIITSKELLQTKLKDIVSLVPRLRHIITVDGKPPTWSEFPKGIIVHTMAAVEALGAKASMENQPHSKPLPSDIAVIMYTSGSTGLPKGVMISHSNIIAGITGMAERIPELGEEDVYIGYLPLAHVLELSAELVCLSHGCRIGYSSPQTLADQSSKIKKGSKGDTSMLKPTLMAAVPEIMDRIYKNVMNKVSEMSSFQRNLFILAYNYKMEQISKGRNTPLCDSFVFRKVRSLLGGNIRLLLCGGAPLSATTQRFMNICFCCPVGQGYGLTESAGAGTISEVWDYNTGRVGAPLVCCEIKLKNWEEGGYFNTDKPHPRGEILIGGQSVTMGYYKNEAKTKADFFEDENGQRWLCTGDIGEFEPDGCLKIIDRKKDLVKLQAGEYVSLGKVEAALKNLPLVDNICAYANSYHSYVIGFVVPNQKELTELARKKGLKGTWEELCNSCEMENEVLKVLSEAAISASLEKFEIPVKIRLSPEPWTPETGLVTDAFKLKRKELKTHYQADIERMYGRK
UniProt P14550: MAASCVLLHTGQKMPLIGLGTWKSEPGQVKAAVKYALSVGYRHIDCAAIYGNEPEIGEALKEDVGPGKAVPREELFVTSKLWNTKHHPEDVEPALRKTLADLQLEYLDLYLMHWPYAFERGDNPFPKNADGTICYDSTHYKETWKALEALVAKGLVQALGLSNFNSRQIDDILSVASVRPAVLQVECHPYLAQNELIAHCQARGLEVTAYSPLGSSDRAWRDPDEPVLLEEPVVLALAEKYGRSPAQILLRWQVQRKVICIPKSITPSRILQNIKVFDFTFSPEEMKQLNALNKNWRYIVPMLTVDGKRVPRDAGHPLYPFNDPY
UniProt P24666: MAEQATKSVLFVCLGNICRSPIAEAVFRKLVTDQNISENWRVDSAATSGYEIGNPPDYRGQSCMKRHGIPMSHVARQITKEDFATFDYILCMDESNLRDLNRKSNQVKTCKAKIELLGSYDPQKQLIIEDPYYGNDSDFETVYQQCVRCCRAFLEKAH

What was measured:
Assay in all cases: log2 fold change, soluble protein after heating vs DMSO (PISA); higher = thermal stabilisation; K562 lysate, 10 uM; active = over 0.2 and 3.5 SD of the protein, either way, in both replicates (recomputed)
[1] = compound: C#Cc1cccc(Nc2ncnc3cc(OCCOC)c(OCCOC)cc23)c1 [erlotinib]
Procedure, shortened: (§1)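 K562 pellets were dounce-homogenised in PBS pH 7.4 containing 1 mM MgCl2, and the crude extract, at 1 mg/mL protein, was exposed to 10 μM compound for 30 min. Aliquots were heated for 3 min across 48°C-58°C, pooled, brought to 0.5% NP-40 at 4°C and spun at 21,000xg for 90 min, with the supernatant taken as soluble protein. TMTpro 16plex LC-MS/MS with equalised channel sums quantified that protein. Values are log-two fold changes in thermal stability relative to solvent controls, taken from duplicates.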

[2] = compound: C/C(=N\NC(=O)C1=CC(=CC=C1)S(=O)(=O)N2CCOCC2)/C3=C(C=CC(=C3)Cl)O
Procedure, shortened: as §1

[3] = compound: C1=CC(=CC=C1C2=NC3=C(N2)C=C(C=C3)C(=O)N)OC4=CC=C(C=C4)Cl
Procedure, shortened: as §1

[4] = compound: C1=CC2=C(C=CC(=C2)/C=C\3/C(=O)NC(=NCC4=CC=CS4)S3)N=C1
Procedure, shortened: as §1

[5] = compound: C1=CC2=NC=CN=C2C=C1/C=C/3\C(=O)NC(=O)S3
Procedure, shortened: as §1

[6] = compound: C1=CC=C(C=C1)C2=NC(=C(N2)C3=CC=NC=C3)C4=CC(=C(C=C4)Cl)O
Procedure, shortened: as §1

[7] = compound: C1=CC=C2C(=C1)C3=NNC4=CC=CC(=C43)C2=O
Procedure, shortened: as §1

[8] = compound: C1CCN(C1)C(=O)NC2=CC=CC(=C2)NC3=NC=C(C(=N3)NCCC4=CN=CN4)Br
Procedure, shortened: as §1

[9] = compound: C1CN(CCC1(CC2=CC=C(C=C2)Cl)N)C3=NC=NC4=C3C=CN4
Procedure, shortened: as §1

[10] = compound: C1COCCN1CCN2C3=CC=CC=C3N=C2NC(=O)C4=CC(=CC=C4)[N+](=O)[O-] [IRAK-1-4 Inhibitor I]
Procedure, shortened: as §1

[11] = compound: C=CC(=O)N1CCC[C@@H](n2nc(-c3ccc(Oc4ccccc4)cc3)c3c(N)ncnc32)C1 [ibrutinib]
Procedure, shortened: as §1

[12] = compound: CC(=O)c1cnc2ccc(-c3cc(Cl)c(O)c(Cl)c3)nc2c1N[C@H]1CC[C@H](CN(C)C)CC1
Procedure, shortened: as §1

[13] = compound: CC(C)(C)Cn1c(N)nc2ccc(-c3[nH]c(C(C)(C)C)nc3-c3ccc(F)cc3)nc21 [ralimetinib]
Procedure, shortened: as §1

[14] = compound: CC(C)(O)CC(=O)NCCn1ccc2ncnc(Nc3ccc(Oc4cccc(C(F)(F)F)c4)c(Cl)c3)c21
Procedure, shortened: as §1

[15] = compound: CC(C)C1=C2N=C(C=C(N2N=C1)NCC3=CC=CC=C3)NCCCCCCN
Procedure, shortened: as §1

[16] = compound: CC1=C(C(CC(=O)N1)C2=CC=C(C=C2)C(F)(F)F)C(=O)NC3=C(C=C4C(=C3)C=NN4)F
Procedure, shortened: as §1

[17] = compound: CC1=C(C2=C(C=C1)C(=O)C3=CC=CC=C3N2CCCN)C
Procedure, shortened: as §1

[18] = compound: CC1=C(C=C(C=C1)NC(=O)C2=CC(=CC=C2)C(C)(C)C#N)NC3=CC4=C(C=C3)N=CN(C4=O)C
Procedure, shortened: as §1

[19] = compound: CC1=C(C=C(C=C1)NC(=O)C2=CC(=CC=C2)N(C)C)NC(=O)C3=CC=C(C=C3)O
Procedure, shortened: as §1

[20] = compound: CC1=CC=C(C=C1)SC2=C3C=C(SC3=CN=C2)C(=O)N
Procedure, shortened: as §1

Measured: log2 fold change

ADD1 isoform 3 (UniProt P35611)
inactive: [1] -0.027 | [2] 0 | [3] 0.033 | [4] 0.011 | [5] -0.01 | [6] -0.004 | [7] 0.011 | [8] -0.015 | [9] -0.014 | [10] -0.021 | [11] -0.006 | [12] -0.009 | [13] 0 | [14] -0.01 | [15] -0.005 | [16] 0.007 | [17] -0.038 | [18] 0.005 | [19] -0.009 | [20] -0.019

ADI1 (UniProt Q9BV57)
inactive: [1] 0.02 | [2] -0.085 | [3] -0.02 | [4] 0.053 | [5] -0.007 | [6] -0.001 | [7] -0.011 | [8] 0.022 | [9] 0.001 | [10] 0.056 | [11] -0.026 | [12] 0.002 | [13] 0.027 | [14] -0.006 | [15] 0.001 | [16] 0.011 | [17] 0.001 | [18] 0.023 | [19] 0.003 | [20] -0.005

ACTL6A (UniProt O96019)
inactive: [1] 0.005 | [2] 0.02 | [3] 0.017 | [4] -0.015 | [5] 0.008 | [6] -0.008 | [7] 0.001 | [8] -0.016 | [9] 0.014 | [10] -0.006 | [11] -0.019 | [12] -0.018 | [13] 0.008 | [14] -0.02 | [15] 0.009 | [16] -0.009 | [17] -0.008 | [18] 0.013 | [19] -0.002 | [20] -0.008

ACOX1 isoform 2 (UniProt Q15067)
inactive: [1] -0.01 | [2] -0.023 | [3] 0.007 | [4] 0.007 | [5] 0.01 | [6] 0.011 | [7] -0.017 | [8] -0.007 | [9] 0.024 | [10] 0.081 | [11] 0.036 | [12] 0.052 | [13] 0.098 | [14] -0.044 | [15] -0.013 | [16] -0.016 | [17] -0.043 | [18] 0.001 | [19] -0.026 | [20] -0.024

ADH5 (UniProt P11766)
inactive: [1] -0.006 | [2] 0.033 | [3] -0.007 | [4] -0.016 | [5] 0.063 | [6] 0.026 | [7] 0.009 | [8] 0.011 | [9] -0.024 | [10] -0.005 | [11] -0.019 | [12] 0.004 | [13] 0.004 | [14] 0.001 | [15] -0.008 | [16] -0.014 | [17] 0.002 | [18] 0.015 | [19] -0.003 | [20] 0.001

ACSM3 (UniProt Q53FZ2)
inactive: [1] -0.015 | [2] 0.124 | [3] 0.013 | [4] 0.027 | [5] -0.015 | [6] -0.004 | [7] -0.026 | [8] 0.031 | [9] 0.007 | [10] 0.005 | [11] -0.036 | [12] 0.044 | [13] 0.009 | [14] -0.027 | [15] 0.003 | [16] -0.04 | [17] -0.002 | [18] -0.022 | [19] 0.034 | [20] -0.007

AIMP2 (UniProt Q13155)
inactive: [1] 0.021 | [2] 0.062 | [3] -0.01 | [4] 0.006 | [5] 0.002 | [6] -0.016 | [7] -0.001 | [8] 0.014 | [9] -0.036 | [10] 0.008 | [11] 0 | [12] 0.013 | [13] 0.044 | [14] 0.015 | [15] 0.044 | [16] 0.002 | [17] 0.018 | [18] -0.005 | [19] 0.019 | [20] 0.028

AGK (UniProt Q53H12)
inactive: [1] 0.025 | [2] 0.005 | [3] -0.111 | [4] 0.019 | [5] -0.015 | [6] -0.022 | [7] 0.033 | [8] -0.014 | [9] -0.006 | [10] -0.01 | [11] -0.009 | [12] -0.005 | [13] -0.024 | [14] -0.062 | [15] 0.007 | [16] -0.013 | [17] 0.009 | [18] 0.003 | [19] 0.023 | [20] 0.041

AK3 (UniProt Q9UIJ7)
inactive: [1] -0.028 | [2] -0.014 | [3] 0.001 | [4] -0.008 | [5] -0.02 | [6] -0.018 | [7] 0.005 | [8] 0.004 | [9] 0.013 | [10] 0 | [11] -0.004 | [12] 0.007 | [13] -0.029 | [14] 0.003 | [15] 0.014 | [16] -0.008 | [17] 0.005 | [18] -0.032 | [19] -0.033 | [20] 0.008

ACTR3B (UniProt Q9P1U1)
inactive: [1] -0.039 | [2] -0.069 | [3] -0.041 | [4] -0.003 | [5] 0.062 | [6] 0.077 | [7] -0.144 | [8] 0.041 | [9] 0.053 | [10] 0.011 | [11] 0.008 | [12] 0.005 | [13] -0.068 | [14] 0.046 | [15] 0.023 | [16] -0.056 | [17] 0.024 | [18] -0.023 | [19] -0.016 | [20] -0.002

ACSS2 isoform 2 (UniProt Q9NR19)
inactive: [1] 0.008 | [2] 0.025 | [3] -0.014 | [4] -0.006 | [5] 0.009 | [6] -0.021 | [7] -0.002 | [8] 0.07 | [9] -0.003 | [10] -0.026 | [11] -0.026 | [12] -0.003 | [13] 0.01 | [14] 0.029 | [15] -0.014 | [16] 0.02 | [17] 0.034 | [18] -0.041 | [19] 0.029 | [20] 0.002

ACSL3 (UniProt O95573)
inactive: [1] 0.054 | [2] 0.045 | [3] 0.107 | [4] 0.003 | [5] 0.015 | [6] -0.033 | [7] -0.005 | [8] -0.03 | [9] 0.049 | [10] 0.025 | [11] -0.036 | [12] -0.005 | [13] 0.022 | [14] -0.023 | [15] -0.074 | [16] 0.029 | [17] -0.006 | [18] 0.008 | [19] 0.017 | [20] 0.041

AK2 (UniProt P54819)
inactive: [1] -0.011 | [2] -0.052 | [3] 0.035 | [4] -0.002 | [5] 0.002 | [6] 0.016 | [7] 0.014 | [8] -0.008 | [9] -0.002 | [10] 0.005 | [11] 0.054 | [12] -0.022 | [13] -0.013 | [14] 0.027 | [15] 0.018 | [16] -0.018 | [17] 0.003 | [18] -0.018 | [19] -0.031 | [20] -0.024

AKR1A1 (UniProt P14550)
inactive: [1] 0.007 | [2] 0.02 | [3] -0.004 | [4] 0.016 | [5] 0.007 | [6] -0.015 | [7] -0.011 | [8] -0.008 | [9] 0.02 | [10] -0.006 | [11] -0.009 | [12] -0.009 | [13] -0.009 | [14] 0 | [15] 0.01 | [16] -0.016 | [17] 0 | [18] 0 | [19] 0.002 | [20] 0.007

ACTB, A0A2R8Y793
inactive: [1] 0.034 | [2] 0.019 | [3] 0.017 | [4] -0.006 | [5] -0.002 | [6] 0.008 | [7] -0.035 | [8] -0.008 | [9] 0.023 | [10] 0.013 | [11] -0.003 | [12] 0.006 | [13] 0.03 | [14] 0.008 | [15] 0.036 | [16] -0.004 | [17] 0.007 | [18] 0.001 | [19] 0.017 | [20] 0.013

Two consecutive records out of the list so far, quoted:
AKR1A1 (UniProt P14550)
inactive: [1] 0.007 | [2] 0.02 | [3] -0.004 | [4] 0.016 | [5] 0.007 | [6] -0.015 | [7] -0.011 | [8] -0.008 | [9] 0.02 | [10] -0.006 | [11] -0.009 | [12] -0.009 | [13] -0.009 | [14] 0 | [15] 0.01 | [16] -0.016 | [17] 0 | [18] 0 | [19] 0.002 | [20] 0.007

ACTB, A0A2R8Y793
inactive: [1] 0.034 | [2] 0.019 | [3] 0.017 | [4] -0.006 | [5] -0.002 | [6] 0.008 | [7] -0.035 | [8] -0.008 | [9] 0.023 | [10] 0.013 | [11] -0.003 | [12] 0.006 | [13] 0.03 | [14] 0.008 | [15] 0.036 | [16] -0.004 | [17] 0.007 | [18] 0.001 | [19] 0.017 | [20] 0.013

Next part:

ACP1 isoform 2 (UniProt P24666)
inactive: [1] 0.038 | [2] -0.008 | [3] -0.004 | [4] -0.033 | [5] -0.014 | [6] 0.006 | [7] -0.015 | [8] -0.025 | [9] 0.087 | [10] 0.055 | [11] -0.041 | [12] 0.012 | [13] 0.001 | [14] -0.031 | [15] 0.01 | [16] -0.085 | [17] -0.001 | [18] 0.015 | [19] 0.023 | [20] 0.015
